These are yes or no findings as the source states them, for the method shown. Some entries that bind do so weakly or less than the wild type.
Biological target: PDL1-Fc fusion protein (human)
Assay: ELISA, PDL1-Fc coated

binding | Binder
binds | PDL1-38 dAb (VHH, not shown: small tags and cut ends) VHH: QVQLQESGGGSVQAGGSLRLSCAVSGFISSRRCMGWFRQAPGKERVGVANITGTGNTYLADSVKGRFTISQNNAKSTVYLQMNSLKPEDTAMYYCAADSFPTCTVVASSGAFQYWGQGTQVTVSS
binds | PDL1-87 dAb (VHH, not shown: small tags and cut ends) VHH: QVQLQESGGGSVQAGGSLKLSCAASGYIFSSCGMGWYRQAPGKERELVSTISSDGTTSYADSVKGRFTISQDNAKNTLYLQMNSLKTEDTAVYYCVADCPPIPEFTSCSGGYCLSGDYWGQGTQVTVSS

From US20180327494A1
